Measurements published in patent US11000604B2, “Reagent for site-selective bioconjugation of proteins or antibodies” (Research Foundation of the City University of New York, priority 2017, dated 2021).

Assay: Degree of labeling of antibodies after conjugation with PODS-FL (UV-Vis spectrophotometry)
Settings: 10 equivalents of PODS-FL

Compound: CS(=O)(=O)c1nnc(-c2ccc(NC(=O)CCC(=O)NCCCOCCOCCOCCCNC(=S)Nc3ccc(-c4c5ccc(=O)cc-5oc5cc(O)ccc45)c(C(=O)O)c3)cc2)o1 [PODS-FL]
- degree of labeling (DOL) (trastuzumab following re-oxidization): 0.1±0.1
- degree of labeling (DOL) (trastuzumab, absence of TCEP): 0.03±0.02
- degree of labeling (DOL) (trastuzumab, two hours, 10 eq TCEP): 2.04±0.03
